These are yes or no findings as the source states them, for the method shown. Some results given as binding are weak or reduced against the parent protein; the word gives no strength. Tags and fused reporters may be left off the sequences shown.

The test deals with T1, Dab2 myosin interacting region (MIR) with C-terminal eGFP (human) (UniProt P98082).
T1 sequence: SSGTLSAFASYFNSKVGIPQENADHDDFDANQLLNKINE
As to the kind of experiment: single-molecule TIRF motility assay (two-colour imaging, spot intensity); Dab2-MIR-GFP + Cy3-myosin VI complex at 50 pM on biotinylated F-actin with 2 mM ATP; 10 Hz; Cy3 spot intensity and run length from kymographs; both purified.

B1: Cy3-labeled full-length myosin VI (natural protein, human, UniProt Q9UM54 1-1294, looked up)
chain: MEDGKPVWAPHPTDGFQMGNIVDIGPDSLTIEPLNQKGKTFLALINQVFPAEEDSKKDVEDNCSLMYLNEATLLHNIKVRYSKDRIYTYVANILIAVNPYFDIPKIYSSEAIKSYQGKSLGTRPPHVFAIADKAFRDMKVLKMSQSIIVSGESGAGKTENTKFVLRYLTESYGTGQDIDDRIVEANPLLEAFGNAKTVRNNNSSRFGKFVEIHFNEKSSVVGGFVSHYLLEKSRICVQGKEERNYHIFYRLCAGASEDIREKLHLSSPDNFRYLNRGCTRYFANKETDKQILQNRKSPEYLKAGSMKDPLLDDHGDFIRMCTAMKKIGLDDEEKLDLFRVVAGVLHLGNIDFEEAGSTSGGCNLKNKSAQSLEYCAELLGLDQDDLRVSLTTRVMLTTAGGTKGTVIKVPLKVEQANNARDALAKTVYSHLFDHVVNRVNQCFPFETSSYFIGVLDIAGFEYFEHNSFEQFCINYCNEKLQQFFNERILKEEQELYQKEGLGVNEVHYVDNQDCIDLIEAKLVGILDILDEENRLPQPSDQHFTSAVHQKHKDHFRLTIPRKSKLAVHRNIRDDEGFIIRHFAGAVCYETTQFVEKNNDALHMSLESLICESRDKFIRELFESSTNNNKDTKQKAGKLSFISVGNKFKTQLNLLLDKLRSTGASFIRCIKPNLKMTSHHFEGAQILSQLQCSGMVSVLDLMQGGYPSRASFHELYNMYKKYMPDKLARLDPRLFCKALFKALGLNENDYKFGLTKVFFRPGKFAEFDQIMKSDPDHLAELVKRVNHWLTCSRWKKVQWCSLSVIKLKNKIKYRAEACIKMQKTIRMWLCKRRHKPRIDGLVKVGTLKKRLDKFNEVVSVLKDGKPEMNKQIKNLEISIDTLMAKIKSTMMTQEQIQKEYDALVKSSEELLSALQKKKQQEEEAERLRRIQEEMEKERKRREEDEKRRRKEEEERRMKLEMEAKRKQEEEERKKREDDEKRIQAEVEAQLARQKEEESQQQAVLEQERRDRELALRIAQSEAELISDEAQADLALRRSLDSYPVSKNDGTRPKMTPEQMAKEMSEFLSRGPAVLATKAAAGTKKYDLSKWKYAELRDTINTSCDIELLAACREEFHRRLKVYHAWKSKNKKRNTETEQRAPKSVTDYDFAPFLNNSPQQNPAAQIPARQREIEMNRQQRFFRIPFIRPADQYKDPQSKKKGWWYAHFDGPWIARQMELHPDKPPILLVAGKDDMEMCELNLEETGLTRKRGAEILPRQFEEIWERCGGIQYLQNAIESRQARPTYATAMLQSLLK
modifications: Cy3 label
notes: Myosin VI, human, the isoform containing both the long insert (LI) and short insert (SI); probably Myosin VI FL-SNAP (C-terminal SNAP, FLAG and 6X-His tags); Assay buffers held 10 uM calmodulin; The surface gliding assays used dark myosin VI FL-FLAG; also called Cy3-myosin VI; myosin VI FL
For the molecule B1, the binding result is reported as “binds weakly”.
